{"source": "PubChem BioAssay AID743121 (NCATS, 2013)", "screen": "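Partners whose loss is lethal together with topoisomerase I blockade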 (primary screen)", "cell system": "MDA-MB-231 cells, a human breast cancer line", "knock-down reagent": "single siRNA against human genes, 20 nM siRNA (0.8 pmol per well)", "time to read-out": "120 h (drug added 48 h after transfection, read 72 h later)", "treatment": "camptothecin 20 nM (about EC30) for 72 h; vehicle 0.1% DMSO in parallel plates", "read-out": "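Cell viability by ATP luminescence (CellTiter-Glo) as % of non-targeting siRNA wells, and the log2 ratio of viability without drug over viability with camptothecin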", "scale": "log2 vehicle/camptothecin viability: higher = stronger sensitisation to camptothecin", "rule for the call": "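Active genes have an RSA gene-level p-value below 0.001, computed from the ratios of their separate siRNAs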", "note": "Here is an unselected part of about 26,000 reagents. 167 of all reagents (0.63%) were called active. 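Calls are per gene from RSA p-values that are not deposited; an individual active-marked siRNA can sensitise only weakly.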 Entries without a mark were called inactive. Reagents against one gene are numbered here. Not all columns of the deposit are shown."}
{"Gene":"LILRB3","siRNA no.":1,"log2 vehicle/camptothecin viability":-0.418}
{"Gene":"LILRB3","siRNA no.":2,"log2 vehicle/camptothecin viability":0.00581}
{"Gene":"LILRB3","siRNA no.":3,"log2 vehicle/camptothecin viability":-0.14}
{"Gene":"GABRR3","siRNA no.":1,"log2 vehicle/camptothecin viability":-0.39}
{"Gene":"GABRR3","siRNA no.":2,"log2 vehicle/camptothecin viability":-0.37}
{"Gene":"GABRR3","siRNA no.":3,"log2 vehicle/camptothecin viability":-0.432}
{"Gene":"GABRR3","siRNA no.":4,"log2 vehicle/camptothecin viability":-0.0863}
{"Gene":"CLEC12A","siRNA no.":1,"log2 vehicle/camptothecin viability":-0.299}
{"Gene":"CLEC12A","siRNA no.":2,"log2 vehicle/camptothecin viability":0.552}
{"Gene":"CLEC12A","siRNA no.":3,"log2 vehicle/camptothecin viability":0.215}
{"Gene":"CLEC12A","siRNA no.":4,"log2 vehicle/camptothecin viability":-0.105}
{"Gene":"MTM1","siRNA no.":1,"log2 vehicle/camptothecin viability":-0.657}
{"Gene":"MTM1","siRNA no.":2,"log2 vehicle/camptothecin viability":-0.537}
{"Gene":"MTM1","siRNA no.":3,"log2 vehicle/camptothecin viability":-0.137}
{"Gene":"MTM1","siRNA no.":4,"log2 vehicle/camptothecin viability":-0.055}
{"Gene":"SCPEP1","siRNA no.":1,"log2 vehicle/camptothecin viability":-0.31}
{"Gene":"SCPEP1","siRNA no.":2,"log2 vehicle/camptothecin viability":-0.0444}
{"Gene":"SCPEP1","siRNA no.":3,"log2 vehicle/camptothecin viability":0.254}
{"Gene":"SCPEP1","siRNA no.":4,"log2 vehicle/camptothecin viability":-0.267}
{"Gene":"ODAD1","siRNA no.":1,"log2 vehicle/camptothecin viability":-0.43}
{"Gene":"ODAD1","siRNA no.":2,"log2 vehicle/camptothecin viability":-0.552}
{"Gene":"ODAD1","siRNA no.":3,"log2 vehicle/camptothecin viability":-0.0162}
{"Gene":"ODAD1","siRNA no.":4,"log2 vehicle/camptothecin viability":-0.276}
{"Gene":"GNG7","siRNA no.":1,"log2 vehicle/camptothecin viability":-0.168}
{"Gene":"GNG7","siRNA no.":2,"log2 vehicle/camptothecin viability":-0.107}
{"Gene":"GNG7","siRNA no.":3,"log2 vehicle/camptothecin viability":0.322}
{"Gene":"GNG7","siRNA no.":4,"log2 vehicle/camptothecin viability":-0.0404}
{"Gene":"OR3A2","siRNA no.":1,"log2 vehicle/camptothecin viability":0.103}
{"Gene":"OR3A2","siRNA no.":2,"log2 vehicle/camptothecin viability":-0.323}
{"Gene":"OR3A2","siRNA no.":3,"log2 vehicle/camptothecin viability":-0.216}
{"Gene":"OR3A2","siRNA no.":4,"log2 vehicle/camptothecin viability":0.309}
{"Gene":"OR3A2","siRNA no.":5,"log2 vehicle/camptothecin viability":-0.127}
{"Gene":"FYN","siRNA no.":1,"log2 vehicle/camptothecin viability":0.183}
{"Gene":"FYN","siRNA no.":2,"log2 vehicle/camptothecin viability":-0.347}
{"Gene":"FYN","siRNA no.":3,"log2 vehicle/camptothecin viability":0.0781}
{"Gene":"FYN","siRNA no.":4,"log2 vehicle/camptothecin viability":-0.222}
